The numbers were not newly measured in patent US20240156825A1, which cites them from elsewhere.

The chains behind the UniProt entries cited, without tags or fusion partners. Residues count along the entry.
UniProt P35968, 20-1356 limits assumed: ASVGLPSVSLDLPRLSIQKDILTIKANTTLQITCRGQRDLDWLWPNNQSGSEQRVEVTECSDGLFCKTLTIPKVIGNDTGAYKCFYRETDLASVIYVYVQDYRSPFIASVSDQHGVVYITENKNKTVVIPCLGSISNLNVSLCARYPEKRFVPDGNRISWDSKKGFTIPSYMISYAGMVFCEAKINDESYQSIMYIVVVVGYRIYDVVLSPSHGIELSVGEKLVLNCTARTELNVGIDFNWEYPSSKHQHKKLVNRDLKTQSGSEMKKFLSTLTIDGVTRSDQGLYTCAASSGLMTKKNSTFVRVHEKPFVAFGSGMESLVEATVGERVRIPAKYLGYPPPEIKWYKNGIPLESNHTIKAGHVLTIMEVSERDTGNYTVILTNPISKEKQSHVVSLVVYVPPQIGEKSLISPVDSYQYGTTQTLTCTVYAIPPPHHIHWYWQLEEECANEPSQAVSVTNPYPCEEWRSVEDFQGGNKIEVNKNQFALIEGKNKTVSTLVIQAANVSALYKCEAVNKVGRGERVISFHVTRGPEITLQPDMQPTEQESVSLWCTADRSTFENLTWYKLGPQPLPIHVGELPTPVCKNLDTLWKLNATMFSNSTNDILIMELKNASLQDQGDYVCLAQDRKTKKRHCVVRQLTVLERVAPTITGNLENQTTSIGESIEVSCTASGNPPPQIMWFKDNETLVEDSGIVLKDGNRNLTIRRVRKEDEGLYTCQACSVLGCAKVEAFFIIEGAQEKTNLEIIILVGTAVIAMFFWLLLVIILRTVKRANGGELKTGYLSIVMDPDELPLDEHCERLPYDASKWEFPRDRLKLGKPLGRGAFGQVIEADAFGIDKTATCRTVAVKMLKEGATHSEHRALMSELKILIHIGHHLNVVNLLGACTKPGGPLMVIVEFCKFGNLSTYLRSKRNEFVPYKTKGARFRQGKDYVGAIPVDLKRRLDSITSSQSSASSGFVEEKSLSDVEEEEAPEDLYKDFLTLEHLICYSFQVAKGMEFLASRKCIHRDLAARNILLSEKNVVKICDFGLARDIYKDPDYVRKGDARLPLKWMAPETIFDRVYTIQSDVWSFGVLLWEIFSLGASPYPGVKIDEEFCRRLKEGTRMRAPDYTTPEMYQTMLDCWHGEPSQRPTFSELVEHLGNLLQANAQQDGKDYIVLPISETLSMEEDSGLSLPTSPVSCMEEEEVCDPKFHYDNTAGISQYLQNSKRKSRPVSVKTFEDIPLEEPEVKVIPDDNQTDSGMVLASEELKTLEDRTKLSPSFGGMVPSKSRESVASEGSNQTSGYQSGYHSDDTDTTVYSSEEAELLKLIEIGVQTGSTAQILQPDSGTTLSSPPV

The structures appear in SMILES notation. pIC50: −log10 of the molar value. The match of structure and compound is tentative.

One data set relates to any gene target. The settings on record: read-out: Min IC50_μM; next lowest IC50 value to any gene target; cited from earlier work.
The target in a further data set is VEGFR2 (Homo sapiens, UniProt P35968). The settings on record: read-out: VEGFR2 IC50_μM; reported IC50 to VEGFR2; cited from earlier work.

Regarding `COc1nc(Nc2ccc(-c3nc4ccccc4s3)c(OC)c2)c2nc[nH]c2n1`, in the data set on any gene target, the pIC50 was 5.68. In the case of `COc1cc2nccc(Oc3ccc4c(C(=O)NCC(F)(F)F)cccc4c3)c2cc1OC` [compound 24823250], the pIC50 at VEGFR2 was 7.82; with any gene target, 7.21.
